Measured values from patent publication CN111995685A.
Changes are numbered by the printed parent chain. These are yes or no findings as the source states them, for the method shown. Some binding calls cover weakened binding; strength is not graded here. One block for each binder: values may come before it.

Chains of the proteins cited; added tags and fusions are not shown. Residues count along the entry.
UniProt Q15116, residues 25-167: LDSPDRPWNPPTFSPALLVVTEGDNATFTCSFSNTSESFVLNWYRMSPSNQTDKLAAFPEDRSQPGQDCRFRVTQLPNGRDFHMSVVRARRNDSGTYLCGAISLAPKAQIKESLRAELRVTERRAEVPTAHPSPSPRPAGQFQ

Molecular target: 抗原人源PD-1蛋白 (human) (UniProt Q15116)
Assay: ELISA of humanised Fab phage clones on PD-1 antigen

binding: binds
B1: T8# (antibody, V domains shown)
VH: EVQLVESGGGLVQPGGSLRLSCAASGFTFSRFDMSWIRQPPGKGLEWVGFIGGGGGRTHYPDAVKGRFTISRDDSKNSLYLQMNSLKTEDTAVYYCARHGTGTGAMDYWGQGTLVTVSS
VL: ETTLTQSPAFMSATPGDKVNISCRASKSVDNYGYSFMHWYQQKPGQPPKLLIYRNANLASGIPARFSGSGSGTEFTLTISSLQSEDFAVYYCQQSNEDPTFGGGTKLEIK

binding: binds
B2: T68# (antibody, V domains shown)
VH: B1 VH with A23V, I37V, P40V, V48M, T101I
VL: B1 VL with K18E, P47A, K49R, N55S, I62V, A64D, E74D, S84A, F87V, L107V

binding: binds
B3: T79# (antibody, V domains shown)
VH: B1 VH with V12I, I37V, P40A, V48I
VL: AIRMTQSPDSLAVSLGERATINCRASKSVDNYGYSFMHWYQQKPGQAPRLLIYRSANLASGVPSRFSGSGSGTDFTLTINSLEAEDAATYYCQQSNEDPTFGGGTKVEIK

binding: binds
B4: T77# (antibody, V domains shown)
VH: B1 VH with V5L, I37V, P40A
VL: B1 VL with P47A, K49R, N55S, I62V, A64D, E74D, S84A, F87V, L107V
